Source: the supplement of paper PMC3334620
Over roughly 33,000 sequences, “E-score (-0.5 to 0.5)” has its median near -0.015; the highest 2% begin near 0.3. Some of the results follow.

Each sequence was assayed against T1, Abf1 (UniProt P14164) (assay: PBM E-score (8-mer binding enrichment) (E-score (-0.5 to 0.5)); higher = stronger / more preferred TF binding). Conditions: protein concentration: 200 nM; construct: GST-full length.
T1 sequence: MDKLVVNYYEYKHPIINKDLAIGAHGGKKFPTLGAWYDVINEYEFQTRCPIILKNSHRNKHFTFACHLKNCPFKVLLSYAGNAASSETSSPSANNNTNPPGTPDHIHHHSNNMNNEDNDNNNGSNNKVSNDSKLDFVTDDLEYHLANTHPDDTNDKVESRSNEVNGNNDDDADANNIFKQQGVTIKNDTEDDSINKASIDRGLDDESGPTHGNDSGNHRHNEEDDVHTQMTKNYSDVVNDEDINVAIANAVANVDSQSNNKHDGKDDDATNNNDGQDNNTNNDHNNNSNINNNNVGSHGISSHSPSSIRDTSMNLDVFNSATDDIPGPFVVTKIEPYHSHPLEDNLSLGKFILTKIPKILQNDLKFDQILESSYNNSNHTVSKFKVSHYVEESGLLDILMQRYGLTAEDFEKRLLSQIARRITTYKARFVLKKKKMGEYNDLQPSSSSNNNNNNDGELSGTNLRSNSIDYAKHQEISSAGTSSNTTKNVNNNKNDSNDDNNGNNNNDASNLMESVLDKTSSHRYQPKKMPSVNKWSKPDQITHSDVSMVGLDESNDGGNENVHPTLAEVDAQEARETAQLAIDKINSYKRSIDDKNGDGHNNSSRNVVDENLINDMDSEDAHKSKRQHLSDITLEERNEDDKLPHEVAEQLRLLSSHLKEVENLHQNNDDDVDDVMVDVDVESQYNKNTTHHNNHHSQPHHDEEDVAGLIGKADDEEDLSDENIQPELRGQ
Outline: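 PURExpress in vitro transcription/translation supplied GST-tagged yeast transcription factors, either full-length or DNA-binding domain. Applied at about 100-200 nM to universal all-10-mer Agilent arrays double-stranded by primer extension, the bound protein was detected with fluorescent anti-GST. E-scores, modified Wilcoxon-Mann-Whitney statistics, were given by the Universal PBM Analysis Suite to ungapped eight-base words pooled with their reverse complements after masliner normalisation.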

Sequence | PBM E-score
TACAGAAA | 0.02
CGACCTCC | 0.0447
ACTTGAAT | 0.0842
ACCAGCCG | -0.109
ATAGTTGC | 0.0289
CAGGTGGC | -0.126
AATCATTA | 0.251
CCTCAGTA | -0.167
GAGGATAC | 0.104
CCAGTTCA | -0.0506
CCATGGTC | -0.27
ACCCCCTC | -0.296
GACAACTC | -0.0011
ATGGCGAA | 0.0789
ATGCAGAG | -0.094
GGCTGAGA | -0.0634
CGTCCTCA | 0.0561
AAAAACAA | 0.153
ACCGTACC | 0.118
GGGATCGA | -0.188
ACGAATTC | 0.116
CGCACCAA | -0.0891
GTACCGAA | -0.0301
AGCTGGGG | -0.268
CAGCCCCC | -0.329

Sequence | PBM E-score
CTGGGAGA | -0.224
GATCCCGA | -0.0793
ATATGGAG | 0.131
CCCCCGGC | -0.467
CACGGCTG | 0.00248
GTAAGGCA | -0.0597
AGGTCCCG | -0.113
GTCCATCA | 0.0377
AGGGGGCC | -0.427
CCACATTC | -0.169
GCAGATCC | 0.0904
AGGTGACT | 0.158
CTTTCCGC | -0.0512
TGACCTAA | 0.268
CATTAGCA | 0.0204
AAGTATGG | 0.067
ATTAGTAC | 0.169
ATGGGCGG | 0.0256
AATAATTA | 0.2
GATAGACA | 0.0719
CCAGTCGG | -0.229
ATCCTGTG | -0.127
GGTAGGTA | 0.00297
GCGTCCGA | -0.0138
AGCGTTTC | -0.303

Sequence | PBM E-score
CCCAATAG | -0.119
CTAAGATC | 0.226
ACAGCCGA | -0.213
AACGGAAT | 0.15
AGCCTTTG | -0.259
CGAGCACA | 0.127
CGCGCTAA | 0.0689
GAATGTAA | 0.0829
AGATTAGG | 0.0252
CGTGCGTA | 0.272
GCCAACCA | -0.172
AGCCGGAA | -0.0916
AAACATTC | 0.00278
GGCGGATA | 0.0201
GCCCGGCC | -0.259
ATTCCAAC | 0.0185
AAGGTTAA | -0.068
CGACGACC | 0.243
CGCCTTCC | -0.336
ACGTAGCA | 0.187
CGGTAATA | 0.114
GAATATAA | 0.06
AGGAGGCC | -0.239
CTCGGGTC | -0.0943
GATACTAC | 0.101

Sequence | PBM E-score
ATAGCTTC | 0.0125
CCCAAAGC | -0.137
AGTAACCC | -0.0694
AAGCCATT | 0.101
AACTATTG | 0.0538
TTACGAAA | 0.279
ACGACTCG | 0.144
TCACGACA | 0.257
AGTAGGCA | 0.00391
AGTGACAA | 0.439
CCTCTCCG | -0.315
AGGAGTGC | -0.144
GAAACCTC | -0.194
AGATGAGG | -0.0744
CCCTCAAC | -0.305
CGATATCG | 0.372
ACAGAAAC | -0.0883
CAGGTAAC | 0.0232
CGTATCTA | 0.0946
AATGCCCT | -0.0718
CCATGTAG | -0.127
ATCTGACA | -0.114
AGCTCTCG | -0.145
TGATCGCA | -0.0164
ACGGTCGG | 0.118

Sequence | PBM E-score
CTAGAAAC | 0.0109
GGTGCCGA | -0.0978
AAGAAAGA | 0.1
CATCCAAA | -0.102
TAGGACCA | -0.0193
CGTGCGAC | 0.243
CTCAATGA | 0.0427
CCCCGTAG | -0.021
AGTGGCAG | -0.0869
ATTATATG | 0.196
GGTTCTCA | 0.0135
CACTTCGG | -0.135
TAACATTA | -0.121
AGCAAAGC | -0.2
CCTCACGA | 0.0455
TGCGAAAA | 0.175
ATCTCACA | 0.0879
CCAATATC | 0.145
ACCTACCC | -0.27
ATAATTCC | -0.0674
GTCCGGGA | 0.135
AGAATGCT | 0.121
TACATGGA | -0.11
AAATGTTG | -0.0635
AAGAGAGG | 0.0446

Retrieved one by one from above (5):
Sequence | PBM E-score
CTAGAAAC | 0.0109
ATTATATG | 0.196
GGTGCCGA | -0.0978
AAATGTTG | -0.0635
CCCCGTAG | -0.021

Later entries.

Sequence | PBM E-score
GAAAAGTC | 0.128
ATTATTGA | 0.00194
ATGAAACG | 0.0474
GAGCCTAC | -0.171
CCCCGTAA | -0.0248
CCAGCCAC | -0.0544
GTCGGGCA | 0.0625
ACCTAGAG | -0.0622
ACTTTAGG | -0.202
AAATCGAT | 0.0198
CACAGGAC | -0.0865
CAAGCGCC | -0.269
AGGGTTGC | -0.0578
AGTAGTTC | -0.136
AGACGTTG | 0.109
ACCGGAAC | -0.0354
ACCCGTTG | -0.0814
CTTTGCAA | -0.00259
GACTCCGC | -0.14
CCTCTCAG | -0.306
GGCGCTAA | -0.0737
ACGCTGTG | 0.0466
GACTTAAC | -0.0733
ACTCAAAT | 0.0793
ACAACAAC | 0.124

Sequence | PBM E-score
AAATTCCA | 0.0868
GCACGGCA | 0.162
TCAGAGCA | 0.0639
GGGAGGTA | -0.191
ATATGATA | 0.316
CGCTCCAG | -0.122
GAGTGCGC | 0.0788
ATAATATA | 0.186
ATCACGTG | 0.178
AATTAATA | 0.302
CAACTTAC | -0.0125
AATCAAGC | -0.066
AGACACCC | -0.18
AGCCGCTA | -0.292
CATCAGGA | -0.0271
AGGTGTCG | -0.0394
CTGGCCCA | -0.303
CGCATGAC | 0.207
TCGTGCAA | 0.361
CATAATCA | 0.253
CCTCTCTC | -0.312
ACTGATGC | -0.171

A run of entries from further up, for reference:
Sequence | PBM E-score
GGGAGGTA | -0.191
ATATGATA | 0.316

Individual results from the list:
Value for CTGGCCCA under PBM E-score: -0.303
Value for CGCATGAC under PBM E-score: 0.207
